Reference: doi:10.1101/259481 (bioRxiv, 2018)
No constants are given. Whether binding was seen depends on the method and setting. For part of these data: Binding calls can cover weak binding; strength is not graded here.

Columns and labels:
Experiment in all cases: ELISA
[1] = biological target: T1, laminin-derived peptide α3_(3031-3043) (human) (UniProt Q16787)
T1 sequence (peptide): KNSFMALYLSKGR

[2] = biological target: T2, laminin-derived peptide α3_(2932-2951) (human) (UniProt Q16787)
T2 sequence (peptide): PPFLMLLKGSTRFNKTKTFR

[3] = biological target: T3, laminin-derived peptide α5_(3312-3325) (human) (UniProt O15230)
T3 sequence (peptide): ARKASRRSRQPARH

[4] = biological target: T4, laminin-derived peptide α3_(3043-3067) (human) (UniProt Q16787)
T4 sequence (peptide): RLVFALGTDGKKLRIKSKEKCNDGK

[5] = biological target: T5, laminin-derived peptide α5_(3300-3330) (human) (UniProt O15230)
T5 sequence (peptide): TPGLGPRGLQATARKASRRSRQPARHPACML

[6] = biological target: T6, laminin alpha 5 LG domain recombinant protein (human) (UniProt O15230)
T6 sequence: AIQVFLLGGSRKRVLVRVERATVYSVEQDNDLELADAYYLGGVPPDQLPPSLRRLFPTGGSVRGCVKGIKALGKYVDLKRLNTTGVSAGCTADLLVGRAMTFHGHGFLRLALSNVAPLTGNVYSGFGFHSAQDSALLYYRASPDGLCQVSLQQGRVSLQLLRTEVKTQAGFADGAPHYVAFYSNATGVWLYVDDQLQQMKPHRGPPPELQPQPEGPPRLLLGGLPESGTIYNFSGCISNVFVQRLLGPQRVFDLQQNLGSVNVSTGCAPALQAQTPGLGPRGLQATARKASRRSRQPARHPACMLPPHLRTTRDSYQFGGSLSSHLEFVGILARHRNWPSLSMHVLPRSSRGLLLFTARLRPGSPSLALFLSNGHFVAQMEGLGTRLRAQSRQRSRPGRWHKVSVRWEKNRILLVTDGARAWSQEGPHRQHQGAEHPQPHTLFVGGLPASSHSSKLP

[7] = biological target: T7, laminin-derived peptide α5_(3539-3550) (human) (UniProt O15230)
T7 sequence (peptide): TLPDVGLELEVR

[8] = biological target: T8, laminin-derived peptide α5_(3417-3436) (human) (UniProt O15230)
T8 sequence (peptide): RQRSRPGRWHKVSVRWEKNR

[9] = biological target: T9, recombinant laminin α3_(2928-3150) protein (human) (UniProt Q16787)
T9 sequence: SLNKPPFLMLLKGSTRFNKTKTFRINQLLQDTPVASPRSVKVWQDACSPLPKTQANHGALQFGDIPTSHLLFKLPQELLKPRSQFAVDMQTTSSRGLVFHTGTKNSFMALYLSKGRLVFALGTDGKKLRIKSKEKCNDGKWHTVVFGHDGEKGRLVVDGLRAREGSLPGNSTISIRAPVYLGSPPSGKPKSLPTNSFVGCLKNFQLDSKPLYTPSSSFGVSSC

binding [1]	binding [2]	binding [3]	binding [4]	binding [5]	binding [6]	binding [7]	binding [8]	binding [9]	Substance
no binding (tested: 1 μg/mL)	no binding (tested: 1 μg/mL)	no binding (tested: 1 μg/mL)	no binding (tested: 1 μg/mL)	no binding (tested: 1 μg/mL)	no binding (tested: 1 μg/mL)	no binding (tested: 1 μg/mL)	no binding (tested: 1 μg/mL)	no binding (tested: 1 μg/mL)	vascular endothelial growth factor (VEGF)-A121 (human) (ligand)
binds	binds	no binding (tested: 1 μg/mL)	binds	binds	binds	binds	binds	binds	vascular endothelial growth factor (VEGF)-A165 (human) (ligand)
